Results taken from the supplement of paper PMC10849652.
The other results are listed elsewhere or left out.

Amino acid sequences for entries named in this document (tags omitted). A change or cut given only in a name is not applied to a line headed by its entry.
UniProt Q71RC2, whole entry, looked up: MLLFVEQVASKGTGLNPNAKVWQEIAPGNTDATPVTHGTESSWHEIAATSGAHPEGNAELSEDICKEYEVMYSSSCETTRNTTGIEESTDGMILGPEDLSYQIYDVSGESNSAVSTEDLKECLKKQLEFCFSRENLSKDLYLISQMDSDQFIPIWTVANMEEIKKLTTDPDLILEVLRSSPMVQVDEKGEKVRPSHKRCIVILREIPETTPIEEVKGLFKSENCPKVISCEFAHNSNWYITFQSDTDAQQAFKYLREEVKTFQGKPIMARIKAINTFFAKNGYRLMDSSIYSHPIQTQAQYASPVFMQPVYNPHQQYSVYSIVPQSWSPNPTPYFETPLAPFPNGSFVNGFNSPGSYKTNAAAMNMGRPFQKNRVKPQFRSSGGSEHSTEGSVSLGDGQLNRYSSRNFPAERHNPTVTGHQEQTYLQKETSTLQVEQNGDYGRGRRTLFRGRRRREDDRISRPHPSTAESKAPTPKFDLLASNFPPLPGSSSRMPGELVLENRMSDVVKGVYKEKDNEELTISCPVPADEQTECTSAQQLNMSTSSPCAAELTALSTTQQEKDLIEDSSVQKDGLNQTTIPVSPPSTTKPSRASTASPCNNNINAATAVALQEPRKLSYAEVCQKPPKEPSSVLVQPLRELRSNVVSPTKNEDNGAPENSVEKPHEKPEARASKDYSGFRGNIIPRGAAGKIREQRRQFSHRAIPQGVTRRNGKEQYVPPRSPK
UniProt Q07866: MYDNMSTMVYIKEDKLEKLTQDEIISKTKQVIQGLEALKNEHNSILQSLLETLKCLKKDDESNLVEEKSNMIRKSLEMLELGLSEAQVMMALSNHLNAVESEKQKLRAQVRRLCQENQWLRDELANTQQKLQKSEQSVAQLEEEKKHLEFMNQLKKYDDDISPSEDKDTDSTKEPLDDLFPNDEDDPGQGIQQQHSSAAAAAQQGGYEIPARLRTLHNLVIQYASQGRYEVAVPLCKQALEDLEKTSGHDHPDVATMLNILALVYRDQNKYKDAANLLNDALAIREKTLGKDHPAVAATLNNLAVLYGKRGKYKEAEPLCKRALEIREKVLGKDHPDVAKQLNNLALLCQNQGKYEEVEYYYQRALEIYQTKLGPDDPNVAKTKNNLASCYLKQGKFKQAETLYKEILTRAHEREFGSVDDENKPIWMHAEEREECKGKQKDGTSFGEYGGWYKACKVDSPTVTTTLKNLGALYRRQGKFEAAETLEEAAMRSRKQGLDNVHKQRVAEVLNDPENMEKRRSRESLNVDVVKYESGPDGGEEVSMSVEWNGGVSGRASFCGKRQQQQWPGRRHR
UniProt Q4G0J3: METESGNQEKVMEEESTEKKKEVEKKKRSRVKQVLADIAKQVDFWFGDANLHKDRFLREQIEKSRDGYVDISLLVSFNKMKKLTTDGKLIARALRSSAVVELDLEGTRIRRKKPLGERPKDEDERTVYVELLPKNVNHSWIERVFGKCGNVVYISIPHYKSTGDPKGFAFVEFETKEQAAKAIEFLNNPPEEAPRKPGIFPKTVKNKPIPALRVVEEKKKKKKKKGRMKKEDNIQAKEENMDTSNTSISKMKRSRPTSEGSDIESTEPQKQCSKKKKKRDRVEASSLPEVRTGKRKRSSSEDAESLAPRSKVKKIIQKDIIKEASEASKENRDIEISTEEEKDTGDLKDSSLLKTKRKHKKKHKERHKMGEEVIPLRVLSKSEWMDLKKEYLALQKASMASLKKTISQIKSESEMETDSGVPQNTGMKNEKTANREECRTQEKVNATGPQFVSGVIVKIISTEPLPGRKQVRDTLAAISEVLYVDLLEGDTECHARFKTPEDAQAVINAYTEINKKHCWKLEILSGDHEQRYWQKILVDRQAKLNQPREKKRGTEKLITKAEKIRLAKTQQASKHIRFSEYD
UniProt Q96EK9: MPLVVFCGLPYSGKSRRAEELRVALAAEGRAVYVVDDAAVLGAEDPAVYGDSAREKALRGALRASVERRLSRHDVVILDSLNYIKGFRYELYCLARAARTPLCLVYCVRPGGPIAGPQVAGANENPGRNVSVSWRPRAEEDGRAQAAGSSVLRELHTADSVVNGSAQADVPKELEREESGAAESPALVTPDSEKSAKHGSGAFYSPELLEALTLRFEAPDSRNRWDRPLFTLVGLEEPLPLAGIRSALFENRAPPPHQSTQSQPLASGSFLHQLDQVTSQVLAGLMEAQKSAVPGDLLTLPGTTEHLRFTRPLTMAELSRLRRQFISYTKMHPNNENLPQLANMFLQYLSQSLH
UniProt Q14657: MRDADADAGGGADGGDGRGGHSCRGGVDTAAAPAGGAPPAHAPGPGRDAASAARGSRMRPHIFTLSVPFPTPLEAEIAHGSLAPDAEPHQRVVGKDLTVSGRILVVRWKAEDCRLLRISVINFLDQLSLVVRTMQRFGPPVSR
UniProt Q14974, whole entry, looked up: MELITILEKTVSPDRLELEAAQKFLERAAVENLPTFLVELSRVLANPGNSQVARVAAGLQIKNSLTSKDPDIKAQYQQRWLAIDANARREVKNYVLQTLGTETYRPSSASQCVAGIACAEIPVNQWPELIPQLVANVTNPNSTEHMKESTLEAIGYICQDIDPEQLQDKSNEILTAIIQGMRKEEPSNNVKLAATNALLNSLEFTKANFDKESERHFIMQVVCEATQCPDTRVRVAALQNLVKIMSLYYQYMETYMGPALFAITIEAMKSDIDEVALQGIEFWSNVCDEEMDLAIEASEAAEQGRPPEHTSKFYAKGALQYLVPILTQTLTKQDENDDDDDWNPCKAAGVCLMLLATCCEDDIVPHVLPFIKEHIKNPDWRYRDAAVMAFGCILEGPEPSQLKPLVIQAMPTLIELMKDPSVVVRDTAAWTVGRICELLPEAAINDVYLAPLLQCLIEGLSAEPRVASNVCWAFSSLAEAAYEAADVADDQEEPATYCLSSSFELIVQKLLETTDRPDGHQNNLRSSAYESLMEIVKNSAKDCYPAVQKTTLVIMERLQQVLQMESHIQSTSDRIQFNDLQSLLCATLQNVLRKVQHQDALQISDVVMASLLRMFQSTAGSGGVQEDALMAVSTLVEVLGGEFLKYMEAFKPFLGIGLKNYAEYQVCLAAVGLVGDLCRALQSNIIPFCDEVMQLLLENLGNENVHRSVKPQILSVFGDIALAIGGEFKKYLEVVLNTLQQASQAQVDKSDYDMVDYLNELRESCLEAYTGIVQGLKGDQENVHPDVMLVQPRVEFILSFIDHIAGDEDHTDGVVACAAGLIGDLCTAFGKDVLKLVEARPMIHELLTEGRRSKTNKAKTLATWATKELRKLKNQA
UniProt Q9H9P8: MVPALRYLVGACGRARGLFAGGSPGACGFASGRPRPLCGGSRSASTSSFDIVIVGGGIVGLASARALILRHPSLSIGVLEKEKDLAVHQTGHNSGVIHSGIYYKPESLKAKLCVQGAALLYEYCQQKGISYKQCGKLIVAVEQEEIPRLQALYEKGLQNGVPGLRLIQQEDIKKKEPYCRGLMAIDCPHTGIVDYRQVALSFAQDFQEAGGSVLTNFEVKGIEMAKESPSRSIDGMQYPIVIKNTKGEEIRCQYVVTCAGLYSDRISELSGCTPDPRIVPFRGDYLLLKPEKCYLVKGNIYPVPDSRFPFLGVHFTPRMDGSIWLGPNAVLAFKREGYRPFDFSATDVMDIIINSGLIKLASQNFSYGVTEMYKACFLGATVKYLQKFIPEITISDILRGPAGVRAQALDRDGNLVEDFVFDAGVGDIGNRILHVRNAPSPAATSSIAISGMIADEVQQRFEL
UniProt Q9BXK1: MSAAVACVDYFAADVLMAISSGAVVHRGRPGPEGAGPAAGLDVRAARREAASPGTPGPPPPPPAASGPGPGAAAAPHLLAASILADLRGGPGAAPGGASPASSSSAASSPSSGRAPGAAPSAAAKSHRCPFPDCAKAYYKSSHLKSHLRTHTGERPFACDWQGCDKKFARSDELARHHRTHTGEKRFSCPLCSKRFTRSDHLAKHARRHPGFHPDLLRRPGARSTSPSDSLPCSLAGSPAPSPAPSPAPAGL
UniProt P33176: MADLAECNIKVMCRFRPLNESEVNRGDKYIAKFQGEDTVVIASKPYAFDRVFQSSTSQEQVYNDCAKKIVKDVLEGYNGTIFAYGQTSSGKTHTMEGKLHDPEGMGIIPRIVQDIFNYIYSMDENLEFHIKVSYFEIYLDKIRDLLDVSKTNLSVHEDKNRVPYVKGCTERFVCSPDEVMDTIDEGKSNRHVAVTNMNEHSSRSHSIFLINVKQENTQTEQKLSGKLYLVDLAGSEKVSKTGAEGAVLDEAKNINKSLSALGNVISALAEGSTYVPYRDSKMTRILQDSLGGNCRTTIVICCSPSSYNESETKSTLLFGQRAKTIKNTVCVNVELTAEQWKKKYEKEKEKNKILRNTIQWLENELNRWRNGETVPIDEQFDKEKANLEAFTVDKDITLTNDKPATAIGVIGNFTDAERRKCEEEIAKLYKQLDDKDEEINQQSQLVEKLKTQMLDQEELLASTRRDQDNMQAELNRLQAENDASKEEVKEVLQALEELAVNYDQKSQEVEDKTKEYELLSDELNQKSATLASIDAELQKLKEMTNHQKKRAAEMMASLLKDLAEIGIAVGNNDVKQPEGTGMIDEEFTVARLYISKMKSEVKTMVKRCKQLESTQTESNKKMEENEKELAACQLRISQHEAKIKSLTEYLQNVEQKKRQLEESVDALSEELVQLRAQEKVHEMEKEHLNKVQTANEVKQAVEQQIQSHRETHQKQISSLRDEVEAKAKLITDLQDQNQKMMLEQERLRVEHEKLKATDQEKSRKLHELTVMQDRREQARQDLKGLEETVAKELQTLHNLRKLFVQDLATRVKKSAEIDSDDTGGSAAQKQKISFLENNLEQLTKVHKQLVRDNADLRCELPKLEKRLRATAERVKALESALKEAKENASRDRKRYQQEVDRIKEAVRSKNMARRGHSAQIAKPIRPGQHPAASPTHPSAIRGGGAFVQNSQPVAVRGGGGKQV
UniProt Q9H0B6: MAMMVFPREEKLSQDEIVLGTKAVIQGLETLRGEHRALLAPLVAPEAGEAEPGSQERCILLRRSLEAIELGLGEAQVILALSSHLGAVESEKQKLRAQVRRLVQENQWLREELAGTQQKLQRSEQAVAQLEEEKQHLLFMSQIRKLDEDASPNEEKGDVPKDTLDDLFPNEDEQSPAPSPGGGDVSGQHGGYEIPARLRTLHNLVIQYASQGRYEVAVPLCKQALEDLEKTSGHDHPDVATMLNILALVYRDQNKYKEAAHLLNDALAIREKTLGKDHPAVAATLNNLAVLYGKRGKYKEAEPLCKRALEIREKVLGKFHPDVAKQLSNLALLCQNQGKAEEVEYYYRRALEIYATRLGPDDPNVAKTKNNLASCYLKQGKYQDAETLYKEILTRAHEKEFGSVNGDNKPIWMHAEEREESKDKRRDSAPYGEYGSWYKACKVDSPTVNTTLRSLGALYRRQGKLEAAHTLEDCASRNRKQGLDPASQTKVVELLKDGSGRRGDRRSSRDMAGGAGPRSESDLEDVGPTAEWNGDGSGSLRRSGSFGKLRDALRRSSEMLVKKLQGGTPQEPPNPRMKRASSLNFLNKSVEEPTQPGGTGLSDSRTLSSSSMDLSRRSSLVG
UniProt Q9BW19: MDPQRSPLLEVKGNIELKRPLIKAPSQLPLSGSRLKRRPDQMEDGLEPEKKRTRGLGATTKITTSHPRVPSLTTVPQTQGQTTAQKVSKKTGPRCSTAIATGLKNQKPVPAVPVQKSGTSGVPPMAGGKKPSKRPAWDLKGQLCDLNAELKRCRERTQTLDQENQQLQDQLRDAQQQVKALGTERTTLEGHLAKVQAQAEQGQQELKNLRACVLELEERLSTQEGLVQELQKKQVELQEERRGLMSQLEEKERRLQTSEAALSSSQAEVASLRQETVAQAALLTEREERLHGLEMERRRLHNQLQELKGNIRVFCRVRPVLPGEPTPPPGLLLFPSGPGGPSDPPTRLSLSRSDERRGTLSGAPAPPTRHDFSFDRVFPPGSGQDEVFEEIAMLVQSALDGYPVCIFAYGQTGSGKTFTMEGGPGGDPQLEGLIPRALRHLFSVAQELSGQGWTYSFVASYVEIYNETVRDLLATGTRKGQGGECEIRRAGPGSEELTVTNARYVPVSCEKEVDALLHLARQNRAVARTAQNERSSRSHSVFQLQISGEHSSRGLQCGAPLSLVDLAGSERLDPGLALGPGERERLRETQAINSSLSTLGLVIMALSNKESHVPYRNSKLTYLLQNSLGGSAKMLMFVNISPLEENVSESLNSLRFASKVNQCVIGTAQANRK

Experiments:
Assay in all cases: log2 fold change, soluble protein after heating vs DMSO (PISA); higher = thermal stabilisation; K562 lysate, 10 uM; active = over 0.2 and 3.5 SD of the protein, either way, in both replicates (recomputed)
ibrutinib = compound: C=CC(=O)N1CCC[C@@H](n2nc(-c3ccc(Oc4ccccc4)cc3)c3c(N)ncnc32)C1 [ibrutinib]
Procedure, shortened: (§1)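 Log-two fold change in thermal stability relative to solvent controls is reported from duplicates. For each sample, crude K562 extract from dounce-homogenised pellets in PBS pH 7.4 with 1 mM MgCl2, at 1 mg/mL protein, was treated with 10 μM compound for 30 min. Aliquots heated for 3 min across 48°C-58°C were pooled, brought to 0.5% NP-40 at 4°C and cleared at 21,000xg for 90 min. The supernatant was quantified by TMTpro 16plex LC-MS/MS with channel sums equalised.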

[1] = compound: CC(=O)c1cnc2ccc(-c3cc(Cl)c(O)c(Cl)c3)nc2c1N[C@H]1CC[C@H](CN(C)C)CC1
Procedure, shortened: as §1

ralimetinib = compound: CC(C)(C)Cn1c(N)nc2ccc(-c3[nH]c(C(C)(C)C)nc3-c3ccc(F)cc3)nc21 [ralimetinib]
Procedure, shortened: as §1

[2] = compound: CC(C)(O)CC(=O)NCCn1ccc2ncnc(Nc3ccc(Oc4cccc(C(F)(F)F)c4)c(Cl)c3)c21
Procedure, shortened: as §1

[3] = compound: CC(C)C1=C2N=C(C=C(N2N=C1)NCC3=CC=CC=C3)NCCCCCCN
Procedure, shortened: as §1

[4] = compound: CC1=C(C(CC(=O)N1)C2=CC=C(C=C2)C(F)(F)F)C(=O)NC3=C(C=C4C(=C3)C=NN4)F
Procedure, shortened: as §1

[5] = compound: CC1=C(C2=C(C=C1)C(=O)C3=CC=CC=C3N2CCCN)C
Procedure, shortened: as §1

[6] = compound: CC1=C(C=C(C=C1)NC(=O)C2=CC(=CC=C2)C(C)(C)C#N)NC3=CC4=C(C=C3)N=CN(C4=O)C
Procedure, shortened: as §1

[7] = compound: CC1=C(C=C(C=C1)NC(=O)C2=CC(=CC=C2)N(C)C)NC(=O)C3=CC=C(C=C3)O
Procedure, shortened: as §1

[8] = compound: CC1=CC=C(C=C1)SC2=C3C=C(SC3=CN=C2)C(=O)N
Procedure, shortened: as §1

vemurafenib = compound: CCCS(=O)(=O)Nc1ccc(F)c(C(=O)c2c[nH]c3ncc(-c4ccc(Cl)cc4)cc23)c1F [vemurafenib]
Procedure, shortened: as §1

[9] = compound: CCCS(=O)(=O)Nc1ccc(F)c(C(=O)c2c[nH]c3ncc(Cl)cc23)c1F
Procedure, shortened: as §1

barasertib = compound: CCN(CCCOc1ccc2c(Nc3cc(CC(=O)Nc4cccc(F)c4)[nH]n3)ncnc2c1)CCOP(=O)(O)O [barasertib]
Procedure, shortened: as §1

[10] = compound: CC[C@@H]1C(=O)N(C)c2cnc(Nc3ccc(C(=O)NC4CCN(C)CC4)cc3OC)nc2N1C1CCCC1
Procedure, shortened: as §1

volasertib = compound: CC[C@@H]1C(=O)N(C)c2cnc(Nc3ccc(C(=O)N[C@H]4CC[C@H](N5CCN(CC6CC6)CC5)CC4)cc3OC)nc2N1C(C)C [volasertib]
Procedure, shortened: as §1

[11] = compound: CCn1c(C(=O)N(C2CC2)C2CC2)cc2c3c(ncn3C)c(Nc3cc(C)n(C)n3)nc21
Procedure, shortened: as §1

[12] = compound: CCn1cc(-c2ccnc3[nH]c(-c4cccc(CN(C)C)c4)cc23)c(-c2ccc(NC(=O)N(C)C)cc2)n1
Procedure, shortened: as §1

[13] = compound: CN1CCC(CNc2ccc3ncc(-c4cccc(OC(F)(F)F)c4)n3n2)CC1
Procedure, shortened: as §1

saracatinib = compound: CN1CCN(CCOc2cc(OC3CCOCC3)c3c(Nc4c(Cl)ccc5c4OCO5)ncnc3c2)CC1 [saracatinib]
Procedure, shortened: as §1

sotrastaurin = compound: CN1CCN(c2nc(C3=C(c4c[nH]c5ccccc45)C(=O)NC3=O)c3ccccc3n2)CC1 [sotrastaurin]
Procedure, shortened: as §1

Measured: log2 fold change

LARP1 (UniProt Q6PKG0)
inactive: ibrutinib 0.004 | [1] -0.015 | ralimetinib 0.008 | [2] 0.021 | [3] -0.001 | [4] 0.003 | [5] -0.029 | [6] -0.024 | [7] 0.026 | [8] 0.025 | vemurafenib -0.018 | [9] 0.008 | barasertib -0.012 | [10] -0.044 | volasertib -0.021 | [11] 0.007 | [12] 0.016 | [13] -0.043 | saracatinib 0.011 | sotrastaurin -0.011

LARP4 isoform 4 (UniProt Q71RC2)
inactive: ibrutinib -0.003 | [1] -0.035 | ralimetinib -0.014 | [2] 0.058 | [3] 0.013 | [4] -0.011 | [5] 0.001 | [6] -0.005 | [7] -0.018 | [8] 0.029 | vemurafenib -0.024 | [9] 0.05 | barasertib 0.007 | [10] -0.015 | volasertib -0.021 | [11] -0.004 | [12] -0.058 | [13] 0.012 | saracatinib 0.057 | sotrastaurin 0.031

KLC1 isoform 6 (UniProt Q07866)
inactive: ibrutinib -0.022 | [1] -0.012 | ralimetinib 0.019 | [2] 0.005 | [3] 0.002 | [4] -0.01 | [5] 0.012 | [6] 0.028 | [7] -0.002 | [8] -0.017 | vemurafenib 0.003 | [9] 0.004 | barasertib -0.002 | [10] 0.012 | volasertib -0.04 | [11] 0 | [12] 0.019 | [13] -0.063 | saracatinib 0.015 | sotrastaurin -0.011

LARP7 isoform 3 (UniProt Q4G0J3)
inactive: ibrutinib -0.001 | [1] -0.019 | ralimetinib -0.015 | [2] -0.009 | [3] 0.002 | [4] 0.021 | [5] -0.024 | [6] 0.006 | [7] 0.027 | [8] 0.001 | vemurafenib 0.011 | [9] 0.02 | barasertib -0.011 | [10] -0.019 | volasertib 0.003 | [11] -0.029 | [12] -0.002 | [13] -0.001 | saracatinib 0.019 | sotrastaurin -0.007

KTI12 (UniProt Q96EK9)
inactive: ibrutinib -0.013 | [1] 0.014 | ralimetinib 0.008 | [2] -0.081 | [3] 0.017 | [4] 0.015 | [5] -0.029 | [6] -0.003 | [7] 0.045 | [8] 0.028 | vemurafenib 0.109 | [9] 0.017 | barasertib -0.003 | [10] 0.059 | volasertib -0.091 | [11] -0.022 | [12] -0.02 | [13] -0.017 | saracatinib -0.056 | sotrastaurin 0.039

LAGE3 (UniProt Q14657)
inactive: ibrutinib 0.047 | [1] 0.002 | ralimetinib 0.012 | [2] 0 | [3] -0.004 | [4] -0.147 | [5] -0.098 | [6] -0.002 | [7] 0.031 | [8] 0.046 | vemurafenib 0.016 | [9] 0.004 | barasertib 0.128 | [10] -0.032 | volasertib 0.005 | [11] 0.058 | [12] -0.024 | [13] -0.003 | saracatinib 0.019 | sotrastaurin -0.024

KPNB1 (UniProt Q14974)
inactive: ibrutinib -0.023 | [1] 0 | ralimetinib -0.002 | [2] -0.027 | [3] -0.01 | [4] -0.02 | [5] -0.014 | [6] 0.013 | [7] 0.009 | [8] -0.009 | vemurafenib 0.036 | [9] -0.006 | barasertib -0.038 | [10] -0.004 | volasertib -0.009 | [11] -0.021 | [12] 0 | [13] -0.023 | saracatinib 0.016 | sotrastaurin 0.008

Pulled one by one from the entries so far (two):
LARP7 isoform 3 (UniProt Q4G0J3)
inactive: ibrutinib -0.001 | [1] -0.019 | ralimetinib -0.015 | [2] -0.009 | [3] 0.002 | [4] 0.021 | [5] -0.024 | [6] 0.006 | [7] 0.027 | [8] 0.001 | vemurafenib 0.011 | [9] 0.02 | barasertib -0.011 | [10] -0.019 | volasertib 0.003 | [11] -0.029 | [12] -0.002 | [13] -0.001 | saracatinib 0.019 | sotrastaurin -0.007

KLC1 isoform 6 (UniProt Q07866)
inactive: ibrutinib -0.022 | [1] -0.012 | ralimetinib 0.019 | [2] 0.005 | [3] 0.002 | [4] -0.01 | [5] 0.012 | [6] 0.028 | [7] -0.002 | [8] -0.017 | vemurafenib 0.003 | [9] 0.004 | barasertib -0.002 | [10] 0.012 | volasertib -0.04 | [11] 0 | [12] 0.019 | [13] -0.063 | saracatinib 0.015 | sotrastaurin -0.011

Additional records

KYAT3 (UniProt Q6YP21)
inactive: ibrutinib 0.005 | [1] 0.018 | ralimetinib 0.017 | [2] 0.001 | [3] -0.029 | [4] -0.001 | [5] -0.011 | [6] 0.029 | [7] -0.019 | [8] 0 | vemurafenib -0.034 | [9] 0.001 | barasertib -0.034 | [10] -0.001 | volasertib 0.025 | [11] 0.002 | [12] -0.17 | [13] 0.133 | saracatinib 0.02 | sotrastaurin -0.011

L2HGDH (UniProt Q9H9P8)
inactive: ibrutinib 0.006 | [1] 0.041 | ralimetinib 0.025 | [2] 0.016 | [3] -0.036 | [4] 0.041 | [5] 0.03 | [6] -0.017 | [7] -0.014 | [8] 0.027 | vemurafenib -0.043 | [9] 0.018 | barasertib -0.003 | [10] -0.077 | volasertib 0.004 | [11] -0.002 | [12] 0.004 | [13] -0.047 | saracatinib 0.006 | sotrastaurin 0.023

KLF16 (UniProt Q9BXK1)
inactive: ibrutinib 0.071 | [1] -0.03 | ralimetinib -0.054 | [2] -0.093 | [3] -0.045 | [4] 0.034 | [5] 0.047 | [6] 0.139 | [7] -0.001 | [8] -0.031 | vemurafenib -0.201 | [9] 0.025 | barasertib -0.206 | [10] 0.239 | volasertib 0.009 | [11] 0.048 | [12] 0.037 | [13] 0.104 | saracatinib 0.045 | sotrastaurin -0.089

KIF5B (UniProt P33176)
inactive: ibrutinib -0.013 | [1] 0.004 | ralimetinib -0.002 | [2] 0 | [3] -0.003 | [4] -0.022 | [5] -0.005 | [6] 0 | [7] -0.001 | [8] -0.004 | vemurafenib -0.036 | [9] 0.001 | barasertib 0.009 | [10] 0.017 | volasertib -0.025 | [11] 0.025 | [12] 0.043 | [13] -0.046 | saracatinib -0.03 | sotrastaurin 0.01

KPNA2 (UniProt P52292)
inactive: ibrutinib -0.044 | [1] -0.011 | ralimetinib -0.001 | [2] -0.023 | [3] 0.009 | [4] -0.01 | [5] -0.027 | [6] -0.032 | [7] 0.051 | [8] 0.041 | vemurafenib 0.001 | [9] 0 | barasertib 0.05 | [10] -0.037 | volasertib -0.051 | [11] 0.004 | [12] -0.033 | [13] -0.041 | saracatinib 0.005 | sotrastaurin 0.038

KLC2 (UniProt Q9H0B6)
inactive: ibrutinib 0.021 | [1] 0.01 | ralimetinib 0.003 | [2] 0.008 | [3] -0.001 | [4] -0.045 | [5] -0.036 | [6] 0.012 | [7] 0.016 | [8] -0.012 | vemurafenib 0.066 | [9] 0.042 | barasertib 0.042 | [10] -0.043 | volasertib -0.074 | [11] -0.009 | [12] -0.015 | [13] -0.069 | saracatinib 0.008 | sotrastaurin -0.016

KNTC1 (UniProt P50748)
inactive: ibrutinib -0.012 | [1] 0.005 | ralimetinib 0.013 | [2] -0.047 | [3] -0.014 | [4] -0.009 | [5] 0.002 | [6] 0.021 | [7] 0.044 | [8] 0.017 | vemurafenib -0.005 | [9] 0.004 | barasertib 0.028 | [10] -0.011 | volasertib -0.06 | [11] 0.014 | [12] -0.036 | [13] 0.008 | saracatinib 0.006 | sotrastaurin 0.049

KDM8 isoform 3 (UniProt Q8N371)
inactive: ibrutinib 0.056 | [1] -0.006 | ralimetinib 0.013 | [2] -0.035 | [3] 0.004 | [4] 0.021 | [5] -0.029 | [6] 0.014 | [7] -0.005 | [8] -0.008 | vemurafenib -0.032 | [9] 0.004 | barasertib 0.061 | [10] 0.021 | volasertib -0.01 | [11] -0.006 | [12] 0.005 | [13] 0.046 | saracatinib -0.059 | sotrastaurin 0.001

KIFC1 (UniProt Q9BW19)
inactive: ibrutinib 0.021 | [1] -0.002 | ralimetinib -0.025 | [2] 0.007 | [3] -0.012 | [4] -0.009 | [5] 0.004 | [6] 0.002 | [7] 0.011 | [8] 0.002 | vemurafenib -0.008 | [9] 0.037 | barasertib 0.002 | [10] 0.006 | volasertib -0.084 | [11] -0.031 | [12] -0.045 | [13] -0.031 | saracatinib 0.021 | sotrastaurin 0.071
